Laboratory results: paper PMC8527048

Target: T1, ORMDL3-MYC (UniProt Q9CPZ6)
T1 sequence: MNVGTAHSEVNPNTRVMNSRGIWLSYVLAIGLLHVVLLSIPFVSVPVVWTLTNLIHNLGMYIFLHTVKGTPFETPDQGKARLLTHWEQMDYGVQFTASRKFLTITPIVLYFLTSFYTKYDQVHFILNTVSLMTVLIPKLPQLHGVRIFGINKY
Experiment: affinity purification with mass spectrometry; anti-MYC antibody on protein G beads precipitates ORMDL3-MYC from BMMCL activated 3 min with 1 uM thapsigargin; 1% Triton X-100 lysis, 2 h at 4°C; Coomassie-stained band cut out, MALDI peptide mass fingerprinting

binding: binds
B1: 5-lipoxygenase (5-LO), endogenous in mouse mast cells (enzyme, UniProt P48999 1-674)
chain: MPSYTVTVATGSQWFAGTDDYIYLSLIGSAGCSEKHLLDKAFYNDFERGAVDSYDVTVDEELGEIYLVKIEKRKYWLHDDWYLKYITLKTPHGDYIEFPCYRWITGEGEIVLRDGRAKLARDDQIHILKQHRRKELEARQKQYRWMEWNPGFPLSIDAKCHKDLPRDIQFDSEKGVDFVLNYSKAMENLFINRFMHMFQSSWHDFADFEKIFVKISNTISERVKNHWQEDLMFGYQFLNGCNPVLIKRCTALPPKLPVTTEMVECSLERQLSLEQEVQEGNIFIVDYELLDGIDANKTDPCTHQFLAAPICLLYKNLANKIVPIAIQLNQTPGESNPIFLPTDSKYDWLLAKIWVRSSDFHVHQTITHLLRTHLVSEVFGIAMYRQLPAVHPLFKLLVAHVRFTIAINTKAREQLICEYGLFDKANATGGGGHVQMVQRAVQDLTYSSLCFPEAIKARGMDSTEDIPFYFYRDDGLLVWEAIQSFTMEVVSIYYENDQVVEEDQELQDFVKDVYVYGMRGKKASGFPKSIKSREKLSEYLTVVIFTASAQHAAVNFGQYDWCSWIPNAPPTMRAPPPTAKGVVTIEQIVDTLPDRGRSCWHLGAVWALSQFQENELFLGMYPEEHFIEKPVKEAMIRFRKNLEAIVSVIAERNKNKKLPYYYLSPDRIPNSVAI

Results are given in words; binding and its absence hold for the method and conditions named. In cells and extracts the contact can be indirect. A yes stands for co-enrichment or nearness to the bait. Other partners may have been found. Sequences can lack the tags named with a protein.
